Laboratory results from paper PMC9059368.
Results are given in words; binding and its absence hold for the method and conditions named. Binding seen in cells or lysates may run through a third protein. These calls come from enrichment with a bait or labelling near it, and not all partners need be listed.

Chains of the proteins cited; added tags and fusions are not shown.
UniProt Q92731: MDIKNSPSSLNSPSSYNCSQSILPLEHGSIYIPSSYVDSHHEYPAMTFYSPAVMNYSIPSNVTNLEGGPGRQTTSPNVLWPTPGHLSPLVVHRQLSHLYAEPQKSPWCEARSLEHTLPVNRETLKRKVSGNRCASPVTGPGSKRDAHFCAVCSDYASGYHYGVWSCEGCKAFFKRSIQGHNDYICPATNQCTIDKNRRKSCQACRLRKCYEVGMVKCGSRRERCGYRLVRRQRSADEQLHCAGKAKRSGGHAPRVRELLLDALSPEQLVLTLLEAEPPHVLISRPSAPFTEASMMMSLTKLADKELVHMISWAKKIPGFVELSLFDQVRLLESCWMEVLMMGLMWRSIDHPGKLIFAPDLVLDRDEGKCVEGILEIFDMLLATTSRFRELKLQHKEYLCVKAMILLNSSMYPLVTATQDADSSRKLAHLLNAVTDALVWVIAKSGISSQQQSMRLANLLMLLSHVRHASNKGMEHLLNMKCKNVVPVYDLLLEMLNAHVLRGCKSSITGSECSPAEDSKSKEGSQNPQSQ
UniProt P03372: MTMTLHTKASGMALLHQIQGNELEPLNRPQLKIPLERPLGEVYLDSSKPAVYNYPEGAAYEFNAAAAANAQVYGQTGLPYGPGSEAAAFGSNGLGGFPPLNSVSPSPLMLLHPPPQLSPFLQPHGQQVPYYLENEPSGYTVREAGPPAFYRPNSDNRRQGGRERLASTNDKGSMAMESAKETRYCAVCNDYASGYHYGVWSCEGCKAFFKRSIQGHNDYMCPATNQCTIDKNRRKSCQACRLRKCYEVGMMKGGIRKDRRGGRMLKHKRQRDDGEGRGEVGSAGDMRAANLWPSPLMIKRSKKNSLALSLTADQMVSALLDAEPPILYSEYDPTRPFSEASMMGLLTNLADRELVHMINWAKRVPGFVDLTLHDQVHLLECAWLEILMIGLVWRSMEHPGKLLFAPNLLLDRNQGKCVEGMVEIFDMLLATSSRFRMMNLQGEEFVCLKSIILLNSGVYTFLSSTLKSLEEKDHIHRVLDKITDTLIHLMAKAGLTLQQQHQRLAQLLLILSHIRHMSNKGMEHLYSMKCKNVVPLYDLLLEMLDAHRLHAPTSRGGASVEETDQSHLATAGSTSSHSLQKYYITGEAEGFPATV
UniProt Q13547: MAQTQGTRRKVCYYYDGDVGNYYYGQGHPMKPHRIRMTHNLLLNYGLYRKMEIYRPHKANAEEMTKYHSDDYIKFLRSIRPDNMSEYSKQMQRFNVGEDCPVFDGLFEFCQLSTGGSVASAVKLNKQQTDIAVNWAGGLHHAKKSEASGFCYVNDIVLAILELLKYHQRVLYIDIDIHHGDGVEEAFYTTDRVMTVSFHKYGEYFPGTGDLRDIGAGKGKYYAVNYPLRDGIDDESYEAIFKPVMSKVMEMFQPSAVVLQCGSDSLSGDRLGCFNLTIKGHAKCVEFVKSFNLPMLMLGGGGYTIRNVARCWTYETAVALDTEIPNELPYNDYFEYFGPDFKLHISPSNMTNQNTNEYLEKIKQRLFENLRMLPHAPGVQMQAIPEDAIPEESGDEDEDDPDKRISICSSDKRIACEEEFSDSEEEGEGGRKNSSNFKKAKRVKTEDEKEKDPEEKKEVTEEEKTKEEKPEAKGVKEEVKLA
UniProt Q15022: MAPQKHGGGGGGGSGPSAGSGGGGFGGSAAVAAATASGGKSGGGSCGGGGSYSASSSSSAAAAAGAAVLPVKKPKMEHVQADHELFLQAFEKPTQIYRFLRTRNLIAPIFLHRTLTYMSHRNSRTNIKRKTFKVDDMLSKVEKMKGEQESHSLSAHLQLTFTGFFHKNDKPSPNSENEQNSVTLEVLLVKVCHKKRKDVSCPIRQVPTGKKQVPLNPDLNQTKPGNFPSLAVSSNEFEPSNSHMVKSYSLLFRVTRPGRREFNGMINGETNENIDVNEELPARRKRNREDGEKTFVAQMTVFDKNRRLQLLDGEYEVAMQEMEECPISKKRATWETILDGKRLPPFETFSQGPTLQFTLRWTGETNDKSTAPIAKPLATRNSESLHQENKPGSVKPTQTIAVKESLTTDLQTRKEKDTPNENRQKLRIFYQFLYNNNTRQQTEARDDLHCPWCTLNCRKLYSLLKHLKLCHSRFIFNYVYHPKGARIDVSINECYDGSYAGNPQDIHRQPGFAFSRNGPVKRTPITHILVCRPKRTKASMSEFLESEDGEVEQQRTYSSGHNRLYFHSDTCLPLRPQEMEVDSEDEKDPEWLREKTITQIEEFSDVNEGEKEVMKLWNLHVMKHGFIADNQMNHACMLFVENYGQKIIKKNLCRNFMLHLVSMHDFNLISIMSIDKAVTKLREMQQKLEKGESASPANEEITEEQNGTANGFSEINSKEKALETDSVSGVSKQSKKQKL

How the values were obtained:
[1] = target: Flag-tagged estrogen receptor beta (Flag-ERβ) (UniProt Q92731); assay: affinity purification with mass spectrometry; anti-Flag immunoprecipitation (antibody cross-linked to beads) from extracts of Ishikawa cells expressing Flag-ERα, Flag-ERβ or Flag control; elution with Flag peptide, trypsin digest, MudPIT (LTQ-Orbitrap)
[2] = target: Flag-tagged estrogen receptor alpha (Flag-ERα) (human) (UniProt P03372); assay: as above

Row | binding [1] | binding [2] | Substance
1 | binds | – | histone deacetylase 1 (HDAC1) (from UniProt Q13547 1-482) (enzyme)
2 | binds | binds | suppressor of Zeste 12 Protein (SUZ12) (from UniProt Q15022 1-739)
